Results taken from article PMC3084786.
Where a chain is given by its changes, count along the chain named. The exact form of at least one protein or probe is not confirmed. At least one result comes from cells or an extract, where the contact may be indirect. For some assays here: A negative result means that nothing was seen under these conditions. Protein sequences can lack the tags named with them.

How the values were obtained:
[1] = target: T1, HA-Hand1-DD (T107D/S109D) (Mus musculus) (UniProt Q64279); experiment: EMSA; settings: nuclear extract; EMSA: Promega gel shift kit, buffer not given; protein in an extract; protein details: HA (N-term)
T1 sequence (looked up, limits assumed): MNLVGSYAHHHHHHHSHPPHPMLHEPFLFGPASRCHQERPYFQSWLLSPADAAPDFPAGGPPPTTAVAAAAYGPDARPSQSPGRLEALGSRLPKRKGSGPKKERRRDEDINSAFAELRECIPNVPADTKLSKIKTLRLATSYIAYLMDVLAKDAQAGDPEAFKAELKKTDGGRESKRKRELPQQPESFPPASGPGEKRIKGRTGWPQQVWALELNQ

[2] = target: T2, HA-Hand1-AA (T107A/S109A) (Mus musculus) (UniProt Q64279); experiment: EMSA; settings: nuclear extract; EMSA: Promega gel shift kit, buffer not given; protein in an extract; protein details: HA (N-term)
T2 sequence (looked up, limits assumed): T1 sequence (looked up, limits assumed) with D107A, D109A

ATTGGCGTCTGGCATTGCATTGGCGTCTGGCATTGCATTGGCGTCTGGCATT / GATCTAATGCCAGACGCCAATGCAATGCCAGACGCCAATGCAATGCCAGACGCCAATGAGCT [Th1 D-box probe (3x D-box)]
binding result [1]: no binding
binding result [2]: binds
